We go through 42 compounds from PubChem BioAssay AID493014 (National Center for Advancing Translational Sciences (NCATS), 2011).

As a reminder, the AC50 is the midpoint of the concentration-response curve, whichever way the signal moves.

The experiment in a line: qHTS Assay to Find Inhibitors of Chronic Active B-Cell Receptor Signaling. As to conditions: ABC-DLBCL IkBa-CBG/CBR reporter, luminescence ratio (green luciferase fused to IkBa over red control in TMD8 lymphoma cells), 4 h. An outline of the steps: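 TMD8 human ABC-DLBCL cells with doxycycline-inducible IκBα–green luciferase fusion and unfused red luciferase, in 0.5% FBS medium; compounds up to 46 uM, 4 h at 37C. Green/red luminescence ratio, filter-overlap corrected, fitted to concentration-response curves.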
A general note: Quantitative high-throughput screening tests each substance at several concentrations.

[1] abbreviates: measured here: CBR red luminescence, cell number.

SMILES strings stand for the structures. Some of the results follow. Shown are side measurements of this screen, not its main read-out; they come without a call. Compounds called inactive in the main read-out are mostly missing here. The note in brackets gives the kind of curve behind each potency; many fits are weak.

Take `CCOC(=O)c1cccc(NC(=O)c2cccs2)c1`: the AC50 under setting [1] was 14.1 µM [falling, partial curve, poor fit].

For `O=P(O)(O)c1ccccc1OCCOCCOCCOCCOc1ccccc1P(=O)(O)O`, the AC50 under setting [1] was 0.398 µM [falling, full curve, poor fit].

As for `NC(=O)NC(CC(=O)NCCc1ccccn1)c1ccccc1Cl` (configuration not stated), under setting [1], the AC50 is 0.1 µM [falling, full curve, poor fit].

`Cc1cccc(NC(=O)CCC(=O)Nc2nnc(C(F)(F)F)s2)c1`: the AC50 under setting [1] is 20 µM [rising, partial curve, poor fit].

Turning to `Cc1nn(-c2ccccc2)c(Cl)c1/C=N/NC(=O)c1ccccc1F`, the AC50 under setting [1] is 35.5 µM [falling, single point].

In the case of `O=C(O)CCN1C(=O)/C(=C\c2cccc(OCC(=O)Nc3ccc(Cl)cc3)c2)SC1=S`, the AC50 under setting [1] is 1.12 µM [falling, full curve].

With `Cc1ccc(NC(=O)c2sc3ncn(Cc4cccc(F)c4)c(=O)c3c2C)c(Br)c1`, the AC50 under setting [1] is 17.8 µM [rising, single point].

With `CC(C)(C)C(=O)N1CCc2cc(-c3csc(N)n3)ccc21`, the AC50 under setting [1] is 2.51 µM [rising, full curve].

`CC(C)c1ccc(S(=O)(=O)Nc2ccc(SC(F)F)cc2)cc1`: the AC50 (measured here: IkBa-CBG green luminescence) is 16.4 µM [rising, partial curve, poor fit].

`Cc1ccc2nc(NC3=NC(CC(=O)O)C(=O)N3)nc(C)c2c1` (configuration not stated): under setting [1], the AC50 is 6.31 µM [falling, single point].

As for `COc1ccc(/C=C2\COc3ccccc3C2=O)c(OC)c1`, the AC50 under setting [1] was 35.5 µM [falling, single point].

Take `O=c1[nH]c2ccccc2cc1-c1nnn(-c2ccc(F)cc2)n1`: the AC50 under setting [1] is 0.0891 µM [falling, full curve, poor fit].

`CCN(CC)S(=O)(=O)c1ccc(Oc2ccccc2)cc1`: the AC50 under setting [1] is 0.326 µM [rising, full curve, poor fit].

In the case of `COc1cc(OC)c(-c2nn3c(-c4ccncc4)nnc3s2)cc1OC`, the AC50 under setting [1] is 11.2 µM [rising, partial curve, poor fit].

Consider `CCOC(=O)c1ccc2c(c1)nc(SCC(=O)c1cc3ccccc3o1)n2CC`, for which the AC50 under setting [1] is 29.1 µM [rising, single point].

`COCCOC1CCN(C(=O)c2cc(COc3ccc(F)cc3F)on2)CC1`: the AC50 under setting [1] was 35.5 µM [rising, single point].

Take `C#Cc1ccc([C@H]2C=C(C(=O)NC3CC3)O[C@@H](OCC)[C@@H]2CCCO)cc1`: the AC50 under setting [1] was 6.31 µM [rising, single point].

`COc1ccc2cc3c(N)nn(C(=O)c4cccc(F)c4)c3nc2c1`: under setting [1], the AC50 was 0.891 µM [falling, full curve].

For `CC1=C(C(=O)OCc2ccccc2)C(c2ccc3ccccc3c2)NC(=O)N1CCCCCC(=O)O` (configuration not stated), the AC50 under setting [1] is 29.1 µM [falling, single point].

In the case of `COc1cc(C(=O)OCC(=O)Nc2ccc(SC(F)F)cc2)cc(OC)c1OC`, the AC50 under setting [1] is 29.1 µM [falling, single point].

Turning to `COc1ccc2c(c1)[n+](=O)c(C(C)=O)c(C)n2[O-]`, the AC50 under setting [1] is 18.4 µM [falling, partial curve, poor fit].

With `COc1cc(NC(=O)c2noc(C)c2[N+](=O)[O-])c(OC)cc1Cl`, the AC50 under setting [1] was 5.01 µM [falling, partial curve, poor fit].

Take `Cc1nc2ccccc2c(=O)n1NC(=O)Nc1ccccc1`: under setting [1], the AC50 is 6.51 µM [falling, single point].

As for `COc1ccccc1N/N=C(\C#N)C(=N)N1CCOCC1`, the AC50 under setting [1] was 2.82 µM [falling, full curve, poor fit].

Regarding `O=C1c2ccccc2C(=O)N1OCc1cccc(Cl)c1`, under setting [1], the AC50 was 20.6 µM [rising, partial curve].

As to `COc1cccc(-c2nnc(NC(=O)C3CCCCC3)o2)c1`, the AC50 under setting [1] was 0.58 µM [falling, partial curve, poor fit].

As for `O=C(OCCNc1nc(-c2ccccc2)nc2ccccc12)c1cccnc1`, the AC50 under setting [1] was 35.5 µM [falling, single point].

For the compound `O=C(CCCN1C(=O)c2ccccc2C1=O)NCc1ccc(F)cc1`, the AC50 under setting [1] is 2.24 µM [rising, full curve, poor fit].

Turning to `O=C(NCCc1c[nH]c2ccccc12)c1cnc2sccn2c1=O`, the AC50 under setting [1] was 13 µM [falling, single point].

As for `COc1ccc(/C=N/NC(=O)c2ccn[nH]2)cc1Cn1nc(C)c([N+](=O)[O-])c1C`, the AC50 under setting [1] is 0.2 µM [falling, full curve, poor fit].

Regarding `CCn1nc(NC(=O)C2CCCO2)c2cc3cc(C)ccc3nc21` (configuration not stated), the concentration at half-maximal activity (AC50) under setting [1] was 22.4 µM [falling, partial curve, poor fit].

On to `Cc1nn2c(-c3ccccc3)ccnc2c1-c1ccccc1`, for which the AC50 under setting [1] is 3.66 µM [rising, partial curve, poor fit].

`COc1ccc(CCC(C)NCc2cc(OC)cc(OC)c2)cc1` (configuration not stated): the AC50 under setting [1] was 1 µM [rising, full curve, poor fit].

Consider `O=C(NCCc1ccccc1)C1CCCN(C(=O)Nc2ccc(F)cc2)C1` (configuration not stated), for which the AC50 under setting [1] was 17.8 µM [rising, partial curve, poor fit].

As to `N=c1oc2cc(O)ccc2cc1C(=O)Nc1nc2ccccc2s1`, the AC50 under setting [1] is 0.0517 µM [falling, full curve].

As for `Cc1nc2sccn2c(=O)c1CCN1CCC(=C(c2ccccc2)c2ccc(F)cc2)CC1`, the concentration at half-maximal activity (AC50) under setting [1] is 6.51 µM [rising, single point].

As for `CC1CCCCN1C(=O)NC12CC3CC(CC(C3)C1)C2` (configuration not stated), the AC50 under setting [1] was 20.6 µM [falling, single point].

On to `CC(NC(=O)COC(=O)CNC(=O)c1ccccc1Cl)C1CC2CCC1C2` (configuration not stated), for which the AC50 under setting [1] is 23.1 µM [rising, single point].

`Cn1c(N)c(C(=O)COC(=O)CCCc2c[nH]c3ccccc23)c(=O)n(C)c1=O`: under setting [1], the AC50 is 5.01 µM [falling, partial curve, poor fit].

In the case of `Cc1c(C(=O)OC2CCC(C)CC2)[nH]c2c1C(=O)CCC2` (configuration not stated), the AC50 under setting [1] was 0.291 µM [rising, full curve, poor fit].

On to `N#CCC(=O)Nc1ccc(C(=O)OCC(=O)N2CCCC2=O)cc1`, for which the AC50 under setting [1] is 20.6 µM [falling, single point].

In the case of `COc1ccc(-c2oc3ccccc3c2C(=O)OCc2ccccc2)cc1`, under setting [1], the AC50 was 14.1 µM [rising, partial curve].
